From paper PMC5393896
These are yes or no findings as the source states them, for the method shown. In cells and extracts the contact can be indirect. A yes stands for co-enrichment or nearness to the bait. Other partners may have been found.

Amino acid sequences for entries named in this document (tags omitted).
UniProt P05453: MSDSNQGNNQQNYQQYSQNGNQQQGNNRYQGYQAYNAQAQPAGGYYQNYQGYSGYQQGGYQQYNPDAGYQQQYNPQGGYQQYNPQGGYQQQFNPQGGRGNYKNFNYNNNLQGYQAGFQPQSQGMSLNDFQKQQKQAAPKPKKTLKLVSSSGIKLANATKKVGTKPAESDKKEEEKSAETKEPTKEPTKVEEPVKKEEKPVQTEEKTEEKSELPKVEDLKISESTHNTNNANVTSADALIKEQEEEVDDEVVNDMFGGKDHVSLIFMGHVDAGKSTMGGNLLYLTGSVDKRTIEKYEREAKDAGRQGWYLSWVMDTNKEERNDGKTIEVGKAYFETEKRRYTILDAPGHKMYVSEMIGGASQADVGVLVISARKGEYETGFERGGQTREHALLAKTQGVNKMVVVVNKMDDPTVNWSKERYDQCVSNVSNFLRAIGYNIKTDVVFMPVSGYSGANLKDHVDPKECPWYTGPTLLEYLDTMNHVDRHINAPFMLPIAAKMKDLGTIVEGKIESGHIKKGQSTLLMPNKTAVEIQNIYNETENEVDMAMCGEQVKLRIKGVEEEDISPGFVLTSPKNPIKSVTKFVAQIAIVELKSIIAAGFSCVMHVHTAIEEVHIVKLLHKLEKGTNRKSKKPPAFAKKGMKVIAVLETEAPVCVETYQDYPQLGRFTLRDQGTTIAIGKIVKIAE

Target: Sup35 translation termination factor tagged at its C-terminus with a tandem affinity purification (TAP) tag (S. cerevisiae) (UniProt P05453)
Assay: affinity purification with mass spectrometry; Sup35-TAP affinity-purified by TAP chromatography from [PIN+][psi-] wild-type and tsa1 tsa2 mutant strains grown for 20 hours; co-purifying proteins identified by LC-MS in triplicate, kept if found in at least two of three replicates

binding | Binder
binds | Abp1 actin nucleation promoting factor (protein, UniProt P15891 1-592) MALEPIDYTTHSREIDAEYLKIVRGSDPDTTWLIISPNAKKEYEPESTGSSFHDFLQLFDETKVQYGLARVSPPGSDVEKIIIIGWCPDSAPLKTRASFAANFAAVANNLFKGYHVQVTARDEDDLDENELLMKISNAAGARYSIQTSSKQQGKASTPPVKKSFTPSKSPAPVSKKEPVKTPSPAPAAKISSRVNDNNDDDDWNEPELKERDFDQAPLKPNQSSYKPIGKIDLQKVIAEEKAKEDPRLVQKPTAAGSKIDPSSDIANLKNESKLKRDSEFNSFLGTTKPPSMTESSLKNDDDKVIKGFRNEKSPAQLWAERKAKQNSGNAETKAEAPKPEVPEDEPEGEPDVKDLKSKFEGLAASEKEEEEMENKFAPPPKKSEPTIISPKPFSKPQEPVKAEEAEQPKTDYKKIGNPLPGMHIEADNEEEPEENDDDWDDDEDEAAQPPLPSRNVASGAPVQKEEPEQEEIAPSLPSRNSIPAPKQEEAPEQAPEEEIEEEAEEAAPQLPSRSSAAPPPPPRRATPEKKPKENPWATAEYDYDAAEDNELTFVENDKIINIEFVDDDWWLGELEKDGSKGLFPSNYVSLGN
binds | Crn1 (protein, UniProt Q06440 1-651) MSGKFVRASKYRHVFGQAAKKELQYEKLKVTNNAWDSNLLKTNGKFIAVNWNASGGGAFAVIPIEEVGKAPDQVPLFRGHTAQVLDTDFDPFNDHRIASGSDDSKIGIWDIPENYKFHDHVDEDGEPIDIKPVKFLTGHARKVGHVLYHPVAENVLASSSGDYTVKLWNVETGKDMITLKHPDMVTSMSFSYDGNYLATVARDKKLRVWNIREEKIVSEGPAHTGAKNQRVVWLGNSDRLATTGFSKLSDRQIGIWDAFNIEKGDLGGFYTVDQSSGILMPFYDEGNKILYLVGKGDGNIRYYEFQNDELFELSEFQSTEAQRGFAVAPKRMVNVKENEVLKGFKTVVDQRIEPVSFFVPRRSEEFQEDIYPDAPSNKPALTAEEWFSGKSVEGPILVSMRSIYDGSAPSFHEAKRPQQPTTQETALEEKKEQPKVEKPISESEKEVKQEAPKSPSPLKSASSSSTINHVLKEDNSINKLLKKSSDIDQVNNAEDPSRDTSGWEEADDEPAPIKIETPVTPTETKKDRTPKVEPSKELKPEPVSIATDRKQEQSLPQEEKSSEKTKSPEQEKSATPPSSITAAKTAITASSKEEPSAARTSPKSLGLKKSVEKLSTLVLQLEDVVDKLTKANLDKDERLLKLEQKIGELSK
binds | Sti1 (protein, UniProt P15705 1-589) MSLTADEYKQQGNAAFTAKDYDKAIELFTKAIEVSETPNHVLYSNRSACYTSLKKFSDALNDANECVKINPSWSKGYNRLGAAHLGLGDLDEAESNYKKALELDASNKAAKEGLDQVHRTQQARQAQPDLGLTQLFADPNLIENLKKNPKTSEMMKDPQLVAKLIGYKQNPQAIGQDLFTDPRLMTIMATLMGVDLNMDDINQSNSMPKEPETSKSTEQKKDAEPQSDSTTSKENSSKAPQKEESKESEPMEVDEDDSKIEADKEKAEGNKFYKARQFDEAIEHYNKAWELHKDITYLNNRAAAEYEKGEYETAISTLNDAVEQGREMRADYKVISKSFARIGNAYHKLGDLKKTIEYYQKSLTEHRTADILTKLRNAEKELKKAEAEAYVNPEKAEEARLEGKEYFTKSDWPNAVKAYTEMIKRAPEDARGYSNRAAALAKLMSFPEAIADCNKAIEKDPNFVRAYIRKATAQIAVKEYASALETLDAARTKDAEVNNGSSAREIDQLYYKASQQRFQPGTSNETPEETYQRAMKDPEVAAIMQDPVMQSILQQAQQNPAALQEHMKNPEVFKKIQTLIAAGIIRTGR
